Assay [1] has as its target T1, GFP-PODXL WT (podocalyxin isoform A, extracellularly GFP-tagged) (human) (UniProt O00592).
T1 sequence: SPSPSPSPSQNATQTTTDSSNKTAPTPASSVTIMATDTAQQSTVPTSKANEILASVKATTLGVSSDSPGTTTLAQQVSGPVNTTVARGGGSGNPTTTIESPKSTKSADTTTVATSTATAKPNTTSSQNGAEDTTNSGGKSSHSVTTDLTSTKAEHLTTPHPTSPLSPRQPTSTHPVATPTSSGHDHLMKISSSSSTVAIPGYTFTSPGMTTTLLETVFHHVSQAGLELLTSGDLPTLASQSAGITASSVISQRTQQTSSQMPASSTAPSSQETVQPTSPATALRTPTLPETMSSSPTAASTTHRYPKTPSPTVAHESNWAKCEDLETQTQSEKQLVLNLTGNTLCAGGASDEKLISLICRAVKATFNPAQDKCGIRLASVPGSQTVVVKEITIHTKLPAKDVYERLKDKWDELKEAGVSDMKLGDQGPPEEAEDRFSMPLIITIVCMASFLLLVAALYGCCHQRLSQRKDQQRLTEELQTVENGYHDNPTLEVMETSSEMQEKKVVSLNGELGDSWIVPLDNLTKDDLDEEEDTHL
As to the kind of experiment: co-IP; association of GAL3 WT or R186S with PODXL (fig. S7, I and J); which partner was precipitated was not shown.

Chains of the proteins cited; added tags and fusions are not shown.
UniProt P17931: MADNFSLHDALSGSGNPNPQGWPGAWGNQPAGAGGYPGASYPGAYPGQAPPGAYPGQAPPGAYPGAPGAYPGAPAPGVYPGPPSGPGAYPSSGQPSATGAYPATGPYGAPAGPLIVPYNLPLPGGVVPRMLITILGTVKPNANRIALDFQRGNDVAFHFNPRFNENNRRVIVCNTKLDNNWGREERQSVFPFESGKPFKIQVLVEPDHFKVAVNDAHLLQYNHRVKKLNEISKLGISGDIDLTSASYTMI

The target in assay [2] is T2, podocalyxin (PODXL), endogenous (human (endogenous in PC3)) (UniProt O00592).
T2 sequence: T1 sequence
Put plainly: co-IP; 1 mg PC3 lysate (Scramble or ITGB1 shRNA) immunoprecipitated with anti-PODXL antibody (3D3) O.N. at 4°C, anti-mouse IgG agarose; Western blot for GAL3; 10 mM tris-Cl (pH 7.5), 150 mM NaCl, 0.5% NP-40.

For assay [3], the target named is T1, GFP-PODXL WT (podocalyxin isoform A, extracellularly GFP-tagged) (human). As to the kind of experiment: co-IP; GFP-Trap immunoprecipitation of GFP-PODXL WT or mutants from PC3 lysates, Western blot for GAL3; lysis buffer 10 mM tris-Cl (pH 7.5), 150 mM NaCl, 0.5% NP-40. For orientation: Immunoblotting shows a protein as a band on a membrane.
The target in assay [4] is T3, GFP-PODXLb (podocalyxin isoform B WT) (human) (UniProt O00592).
T3 sequence: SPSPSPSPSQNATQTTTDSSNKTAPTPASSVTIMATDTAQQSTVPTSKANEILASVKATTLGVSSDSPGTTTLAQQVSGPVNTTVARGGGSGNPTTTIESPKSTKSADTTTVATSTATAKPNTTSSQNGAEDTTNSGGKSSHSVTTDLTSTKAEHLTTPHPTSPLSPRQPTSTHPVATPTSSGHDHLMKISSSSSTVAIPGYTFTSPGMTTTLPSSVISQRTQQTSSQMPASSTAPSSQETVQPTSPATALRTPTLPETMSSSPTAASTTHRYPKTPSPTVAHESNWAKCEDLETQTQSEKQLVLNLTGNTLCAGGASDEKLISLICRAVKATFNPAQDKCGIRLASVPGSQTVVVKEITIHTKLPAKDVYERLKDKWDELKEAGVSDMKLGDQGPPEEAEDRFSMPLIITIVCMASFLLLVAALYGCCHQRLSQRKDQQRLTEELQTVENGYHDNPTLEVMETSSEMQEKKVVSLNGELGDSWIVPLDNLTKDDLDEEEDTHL
Described as above.

Results are given in words; binding and its absence hold for the method and conditions named. Binding seen in cells or lysates may run through a third protein. Some binding calls cover weakened binding; strength is not graded here. For some of these results: Sequences can lack the tags named with a protein.

“TagRFP-T-GAL3 WT (RNAi-resistant) (from UniProt P17931 1-250)”: the binding result in assay [1] is given as “binds”.

For the substance “galectin-3 (GAL3), endogenous (from UniProt P17931 1-250)”, the binding entry in assay [2], in assay [3] and in assay [4] was “binds” throughout.

The values are drawn from publication PMC9897673.
